Values from PubChem BioAssay AID743121 (NCATS, 2013).
The whole screen tested about 26,000 reagents; shown is a part drawn at random. 167 of them (0.63%) were called active. 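Calls are per gene from RSA p-values that are not deposited; an individual active-marked siRNA can sensitise only weakly.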 Reagents against one gene are numbered here.

- Assay: 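Knock-downs that sensitise breast cancer cells to camptothecin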 (primary screen)
- Cells: MDA-MB-231 cells, a human breast cancer line
- Reagents: single siRNA against human genes, 20 nM siRNA (0.8 pmol per well)
- Time to read-out: 120 h (drug added 48 h after transfection, read 72 h later)
- Conditions: camptothecin 20 nM (about EC30) for 72 h; vehicle 0.1% DMSO in parallel plates
- Measurement: 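CellTiter-Glo ATP signal, scaled to control siRNA as percent viability; sensitisation given as log2 of untreated divided by camptothecin-treated viability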
- Reading the numbers: log2 vehicle/camptothecin viability: higher = stronger sensitisation to camptothecin; viability with camptothecin and viability without drug: higher = more viable cells
- Rule for the call: 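Each gene scored by redundant siRNA activity (RSA) over its individual siRNA ratios; a gene is called active at p < 0.001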

target gene | reagent no. | log2 vehicle/camptothecin viability | viability with camptothecin (% of control) | viability without drug (% of control) | Outcome
LSR | 1 | 0.0608 | 64.3 | 67.1 | inactive
LSR | 2 | 0.251 | 52.5 | 62.4 | inactive
LSR | 3 | -0.415 | 43 | 32.2 | inactive
LSR | 4 | -0.087 | 57.2 | 53.8 | inactive
TRIM16 | 1 | -0.409 | 72.3 | 54.5 | inactive
TRIM16 | 2 | 0.983 | 33.2 | 65.6 | inactive
TRIM16 | 3 | -0.163 | 94.2 | 84.1 | inactive
TRIM16 | 4 | -0.408 | 59 | 44.5 | inactive
TRIM16 | 5 | -0.0689 | 80.4 | 76.7 | inactive
AKAP13 | 1 | -0.57 | 78 | 52.6 | active
AKAP13 | 2 | 1.09 | 22.3 | 47.3 | active
AKAP13 | 3 | 0.259 | 66.1 | 79.1 | active
AKAP13 | 4 | 0.997 | 42.2 | 84.2 | active
PFKM | 1 | -0.34 | 70.8 | 55.9 | inactive
PFKM | 2 | 0.026 | 23.3 | 23.7 | inactive
PFKM | 3 | -0.342 | 66.5 | 52.5 | inactive
PFKM | 4 | -0.274 | 86.9 | 71.9 | inactive
SELENOS | 1 | 0.0366 | 90.1 | 92.4 | inactive
SELENOS | 2 | -0.121 | 106 | 97.2 | inactive
SELENOS | 3 | 0.0741 | 83 | 87.4 | inactive
DPEP2 | 1 | -0.104 | 80.2 | 74.7 | inactive
DPEP2 | 2 | 0.118 | 88 | 95.5 | inactive
DPEP2 | 3 | -0.28 | 91.3 | 75.2 | inactive
DPEP2 | 4 | -0.618 | 98 | 63.9 | inactive
GRK7 | 1 | -0.777 | 33 | 19.3 | inactive
GRK7 | 2 | -0.68 | 68.5 | 42.7 | inactive
GRK7 | 3 | -0.398 | 95 | 72.1 | inactive
GRK7 | 4 | -0.225 | 49.4 | 42.3 | inactive
COL4A3 | 1 | -0.0591 | 66.4 | 63.8 | inactive
COL4A3 | 2 | -0.246 | 83.1 | 70 | inactive
COL4A3 | 3 | -0.0818 | 85.8 | 81 | inactive
COL4A3 | 4 | -0.36 | 63.4 | 49.4 | inactive
AHRR | 1 | -0.457 | 100 | 73 | inactive
AHRR | 2 | -0.398 | 61.4 | 46.6 | inactive
AHRR | 3 | 0.28 | 26.5 | 32.1 | inactive
AHRR | 4 | -0.00805 | 32 | 31.8 | inactive
ADAMTS3 | 1 | -0.159 | 117 | 105 | inactive
ADAMTS3 | 2 | -0.288 | 50.9 | 41.7 | inactive
ADAMTS3 | 3 | -0.15 | 46.6 | 42 | inactive
ADAMTS3 | 4 | 0.0694 | 80.7 | 84.7 | inactive

In a second layout: entries from further up
{"target gene": "COL4A3", "reagent no.": 4, "log2 vehicle/camptothecin viability": -0.36, "viability with camptothecin (% of control)": 63.4, "viability without drug (% of control)": 49.4, "Outcome": "inactive"}
{"target gene": "AHRR", "reagent no.": 1, "log2 vehicle/camptothecin viability": -0.457, "viability with camptothecin (% of control)": 100, "viability without drug (% of control)": 73, "Outcome": "inactive"}
{"target gene": "AHRR", "reagent no.": 2, "log2 vehicle/camptothecin viability": -0.398, "viability with camptothecin (% of control)": 61.4, "viability without drug (% of control)": 46.6, "Outcome": "inactive"}
{"target gene": "AHRR", "reagent no.": 3, "log2 vehicle/camptothecin viability": 0.28, "viability with camptothecin (% of control)": 26.5, "viability without drug (% of control)": 32.1, "Outcome": "inactive"}
{"target gene": "AHRR", "reagent no.": 4, "log2 vehicle/camptothecin viability": -0.00805, "viability with camptothecin (% of control)": 32, "viability without drug (% of control)": 31.8, "Outcome": "inactive"}
{"target gene": "ADAMTS3", "reagent no.": 1, "log2 vehicle/camptothecin viability": -0.159, "viability with camptothecin (% of control)": 117, "viability without drug (% of control)": 105, "Outcome": "inactive"}
{"target gene": "ADAMTS3", "reagent no.": 2, "log2 vehicle/camptothecin viability": -0.288, "viability with camptothecin (% of control)": 50.9, "viability without drug (% of control)": 41.7, "Outcome": "inactive"}

More reagents follow.
target gene | reagent no. | log2 vehicle/camptothecin viability | viability with camptothecin (% of control) | viability without drug (% of control) | Outcome
WRN | 1 | 0.239 | 73.7 | 87 | inactive
WRN | 2 | 0.0264 | 85.7 | 87.2 | inactive
WRN | 3 | -0.0888 | 118 | 111 | inactive
WRN | 4 | 0.241 | 70.2 | 83 | inactive
PXN | 1 | 0.24 | 49.4 | 58.3 | inactive
PXN | 2 | -0.493 | 85.3 | 60.6 | inactive
PXN | 3 | -0.0659 | 103 | 98.5 | inactive
STK11IP | 1 | -0.365 | 49.9 | 38.7 | inactive
STK11IP | 2 | -0.12 | 118 | 109 | inactive
STK11IP | 3 | 0.0138 | 81.2 | 81.9 | inactive
STK11IP | 4 | -0.0201 | 116 | 114 | inactive
CD96 | 1 | -0.36 | 64.1 | 50 | inactive
CD96 | 2 | -0.393 | 124 | 94.2 | inactive
CD96 | 3 | -0.187 | 108 | 95 | inactive
CD96 | 4 | 0.178 | 73.1 | 82.7 | inactive
OR2W3 | 1 | -0.172 | 76.9 | 68.2 | inactive
OR2W3 | 2 | -0.116 | 65.9 | 60.9 | inactive
OR2W3 | 3 | 0.279 | 32 | 38.8 | inactive
OR2W3 | 4 | -0.39 | 86.6 | 66.1 | inactive
PARP4 | 1 | -0.361 | 47.6 | 37 | inactive
PARP4 | 2 | -0.455 | 119 | 86.5 | inactive
PARP4 | 3 | 0.0201 | 116 | 117 | inactive
PARP4 | 4 | -0.275 | 71.7 | 59.2 | inactive
DNAH9 | 1 | -0.497 | 122 | 86.1 | inactive
DNAH9 | 2 | -0.169 | 111 | 99.1 | inactive
DNAH9 | 3 | -0.0578 | 80.8 | 77.6 | inactive
HMGN3 | 1 | -0.503 | 66.7 | 47 | inactive
HMGN3 | 2 | -0.425 | 94.7 | 70.5 | inactive
HMGN3 | 3 | 0.257 | 63.8 | 76.2 | inactive
HMGN3 | 4 | 0.514 | 42.8 | 61.2 | inactive
CNTRL | 1 | -0.159 | 64.7 | 58 | inactive
CNTRL | 2 | -0.089 | 115 | 108 | inactive
CNTRL | 3 | -0.427 | 80.5 | 59.9 | inactive
CNTRL | 4 | -0.0221 | 89.2 | 87.8 | inactive
HDAC6 | 1 | -0.126 | 84.7 | 77.6 | inactive
HDAC6 | 2 | -0.18 | 73.9 | 65.2 | inactive
HDAC6 | 3 | 0.0197 | 91.9 | 93.1 | inactive
HDAC6 | 4 | -0.0695 | 100 | 95.8 | inactive
DSCAML1 | 1 | -0.163 | 110 | 98.6 | inactive
DSCAML1 | 2 | -0.00528 | 74.5 | 74.3 | inactive
DSCAML1 | 3 | -0.208 | 30.5 | 26.4 | inactive
DSCAML1 | 4 | -0.316 | 71.9 | 57.8 | inactive
KCNE1 | 1 | 0.0688 | 64.7 | 67.8 | inactive
KCNE1 | 2 | -0.22 | 105 | 90.2 | inactive
KCNE1 | 3 | -0.145 | 98.5 | 89.1 | inactive
KCNE1 | 4 | -0.448 | 75.4 | 55.3 | inactive
CTNS | 1 | -0.474 | 52.2 | 37.6 | inactive
CTNS | 2 | -0.325 | 107 | 85.3 | inactive
CTNS | 3 | -0.349 | 90.3 | 70.9 | inactive
